From the supplement of paper PMC5407854, “Inhibitor of ppGalNAc-T3-mediated O-glycosylation blocks cancer cell invasiveness and lowers FGF23 levels” (eLife, 2017)
The list shows a part of the results. Most entries show no effect beyond the scatter of the controls.

Experiments:
ppGalNAc-T3 sensor = assay: T3 sensor activation Q score (MG/GFP ratio z-score vs DMSO controls) (SD units); higher = more sensor activation (inhibition of ppGalNAc-T3 glycosylation); settings: HEK293 sensor cells; 10 µM; 6 h
Experimental: (§1)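 Cells were treated with compound at 10 uM for 6 h, then MG/GFP ratio was read by flow cytometry (10,000 cells per well, duplicate wells). Q = (R - R_neg)/SD_neg relative to DMSO vehicle controls; the signal rises when the glycosyltransferase is inhibited.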

ppGalNAc-T2 sensor = assay: T2 sensor activation Q score (MG/GFP ratio z-score vs DMSO controls) (SD units); higher = more sensor activation (inhibition of ppGalNAc-T2 glycosylation); settings: HEK293 sensor cells; 10 µM; 6 h
Experimental: as §1

Row | Structure (SMILES) | T3 sensor activation Q score (ppGalNAc-T3 sensor) | T2 sensor activation Q score (ppGalNAc-T2 sensor)
1 | COc1ccc(CN2CCN(c3ccc(OC)cc3)CC2)cc1 | 0.165 | 0.26
2 | COc1ccccc1CN1CCN(Cc2ccccc2)CC1 | -0.985 | -0.115
3 | CN1CCN(Cc2ccc(Cl)cc2)CC1 | -0.46 | 1.18
4 | COc1cccc(CN2CCN(Cc3ccccc3)CC2)c1 | -0.845 | -0.39
5 | CC(C)N1CCN(Cc2cccc(F)c2)CC1 | 0.075 | -0.63
6 | CCOc1ccccc1CN1CCN(c2ccccc2OC)CC1 | 0.435 | 0.245
7 | COc1ccc(CN2CCN(c3cccc(Cl)c3)CC2)c(OC)c1 | 0.335 | 1.29
8 | COc1ccc(CN2CCN(C)CC2)c(OC)c1C | 0.28 | 0.105
9 | Clc1ccccc1CN1CCN(Cc2ccc3c(c2)OCO3)CC1 | -0.92 | 0.04
10 | Fc1ccc(CN2CCN(c3ccccc3)CC2)c(F)c1 | -0.22 | -0.635
11 | CN(CCc1ccccc1)Cc1c(F)cccc1F | 0.235 | -0.075
12 | Cc1ccccc1N1CCN(Cc2cccc(F)c2)CC1 | 0.24 | -0.535
13 | Cc1ccsc1CN1CCN(C)CC1 | 0.44 | -0.01
14 | Fc1ccc(CN2CCN(c3ccccc3F)CC2)cc1F | 1.85 | 0.32
15 | Cc1cccc(-n2c(/C=C/c3ccc([N+](=O)[O-])cc3)nc3ccccc3c2=O)c1 | 0.06 | 0.915
16 | CCOc1ccccc1N1CCN(Cc2ccc(F)c(F)c2)CC1 | -0.055 | -0.065
17 | CN1CCN(Cc2ccc(Cl)cc2Cl)CC1 | -0.15 | -0.73
18 | Brc1ccc(CN2CCNCC2)cc1 | -0.235 | -0.805
19 | O=[N+]([O-])c1ccc(N2CCN(Cc3ccccc3F)CC2)cc1 | -0.4 | -0.36

Single entries from the list:
In T3 sensor activation Q score (ppGalNAc-T3 sensor), CN1CCN(Cc2ccc(Cl)cc2Cl)CC1 has -0.15
In T2 sensor activation Q score (ppGalNAc-T2 sensor), CN1CCN(Cc2ccc(Cl)cc2)CC1 has 1.18
